No constants are given. Whether binding was seen depends on the method and setting. Binding calls can cover weak binding; strength is not graded here. Tags and fused reporters may be left off the sequences shown. For some assays here: Binding seen in cells or lysates may run through a third protein.
T1: cLUC-VvMYBA1 (Vitis vinifera (grapevine)) (UniProt Q6L9M9)
T1 sequence: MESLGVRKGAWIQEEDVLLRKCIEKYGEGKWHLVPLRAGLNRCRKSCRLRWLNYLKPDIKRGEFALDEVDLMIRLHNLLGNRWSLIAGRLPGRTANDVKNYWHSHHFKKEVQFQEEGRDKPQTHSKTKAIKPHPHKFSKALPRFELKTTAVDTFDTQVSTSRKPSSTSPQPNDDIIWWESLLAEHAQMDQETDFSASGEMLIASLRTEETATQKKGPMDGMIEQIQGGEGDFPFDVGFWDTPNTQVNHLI

T2: AD-VvMYBA1 (Vitis vinifera (grapevine)) (UniProt Q6L9M9)
T2 sequence: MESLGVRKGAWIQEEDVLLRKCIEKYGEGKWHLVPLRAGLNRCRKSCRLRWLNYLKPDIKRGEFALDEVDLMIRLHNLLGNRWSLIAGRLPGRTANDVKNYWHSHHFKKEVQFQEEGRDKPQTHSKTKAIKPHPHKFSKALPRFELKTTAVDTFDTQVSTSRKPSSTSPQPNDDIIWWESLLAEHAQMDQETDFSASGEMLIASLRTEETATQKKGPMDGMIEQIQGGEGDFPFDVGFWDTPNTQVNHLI


Columns and labels:
[1] = biological target: T1, cLUC-VvMYBA1 (Vitis vinifera (grapevine)); experiment: split reporter; split-LUC in 4-week-old tobacco leaves; 35S:VvMYC1-nLUC and 35S:cLUC-VvMYBA1 co-expressed with VvSBP8, VvSBP13 fusion or fluorescent protein control; Pro35S:P19 co-infiltrated
[2] = biological target: T2, AD-VvMYBA1 (Vitis vinifera (grapevine)); experiment: yeast three-hybrid; AD-VvMYBA1 with pBridge BD-VvMYC1 (ADH1 promoter) and VvSBP8/13 under the Met25 promoter in AH109; growth on SD/-Trp/-Leu/-His/-Ade plus 1 mM Met (competitor repressed) and on SD/-Trp/-Leu/-His/-Ade/-Met (competitor expressed)
[3] = biological target: pBridge-VvMYC1 (Vitis vinifera (grapevine)); experiment: as above
[4] = biological target: BD-VvSBP13 (Vitis vinifera (grapevine)); experiment: two-hybrid; BD and AD fusions co-transformed into yeast strain AH109; growth on SD/-Trp-Leu-His-Ade medium
[5] = biological target: BD-VvSBP8 (Vitis vinifera (grapevine)); experiment: as above
[6] = biological target: VvMYC1-nLUC (Vitis vinifera (grapevine)); experiment: split reporter; split-LUC in 4-week-old tobacco leaves; 35S:VvMYC1-nLUC and 35S:cLUC-VvMYBA1 co-expressed with VvSBP8, VvSBP13 fusion or fluorescent protein control; Pro35S:P19 co-infiltrated

binding [1] | binding [2] | Molecule | other results
binds |  | VvSBP13-GFP (Vitis vinifera (grapevine)) | 
 | binds | VvSBP13 expressed from pBridge under the Met25 promoter (Vitis vinifera (grapevine)) | 
 | binds | VvSBP8 expressed from pBridge under the Met25 promoter (Vitis vinifera (grapevine)) | 
binds |  | VvSBP8-GFP (Vitis vinifera (grapevine)) | 
 |  | AD-VvMYBA1 (protein, UniProt Q6L9M9 1-250) MESLGVRKGAWIQEEDVLLRKCIEKYGEGKWHLVPLRAGLNRCRKSCRLRWLNYLKPDIKRGEFALDEVDLMIRLHNLLGNRWSLIAGRLPGRTANDVKNYWHSHHFKKEVQFQEEGRDKPQTHSKTKAIKPHPHKFSKALPRFELKTTAVDTFDTQVSTSRKPSSTSPQPNDDIIWWESLLAEHAQMDQETDFSASGEMLIASLRTEETATQKKGPMDGMIEQIQGGEGDFPFDVGFWDTPNTQVNHLI | binding [3]: binds; binding [4]: binds; binding [5]: binds
 |  | cLUC-VvMYBA1 (protein, UniProt Q6L9M9 1-250) MESLGVRKGAWIQEEDVLLRKCIEKYGEGKWHLVPLRAGLNRCRKSCRLRWLNYLKPDIKRGEFALDEVDLMIRLHNLLGNRWSLIAGRLPGRTANDVKNYWHSHHFKKEVQFQEEGRDKPQTHSKTKAIKPHPHKFSKALPRFELKTTAVDTFDTQVSTSRKPSSTSPQPNDDIIWWESLLAEHAQMDQETDFSASGEMLIASLRTEETATQKKGPMDGMIEQIQGGEGDFPFDVGFWDTPNTQVNHLI | binding [6]: binds
